For some assays here: This list holds what a sample rich in hits left over. Only a part is listed here, and it is no random draw. Records with an inconclusive call do not appear. A structure can be active in one record and inactive in another. Calls of active or inactive are those of the source. Rule for the calls, unless noted: active = hit-call score of the fitted dose curve at least 0.9, where 1 is the maximum; inactive = score below 0.9.
How the values were obtained:
[1] = read-out: growth arrest and DNA damage 45 (GADD45A), GADD45A (gene 1647); assay: LTEA_HepaRG_GADD45A: Life Technologies and Expression Analysis (LTEA) Assay for growth arrest and DNA damage 45 (GADD45A) using HepaRG (AID 2283458); conditions: actives raise or lower the signal; mRNA level, 48 h
Summary of the method: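 Eight-point concentration-response in HepaRG cells: 48 h chemical exposure, 0.5% DMSO vehicle, top dose 100 uM. Normalized qRT-PCR mRNA readout with bidirectional fitting relative to DMSO.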

By UniProt entry, the sequences of proteins in these tests, tags left out.
UniProt Q16665, whole entry, looked up: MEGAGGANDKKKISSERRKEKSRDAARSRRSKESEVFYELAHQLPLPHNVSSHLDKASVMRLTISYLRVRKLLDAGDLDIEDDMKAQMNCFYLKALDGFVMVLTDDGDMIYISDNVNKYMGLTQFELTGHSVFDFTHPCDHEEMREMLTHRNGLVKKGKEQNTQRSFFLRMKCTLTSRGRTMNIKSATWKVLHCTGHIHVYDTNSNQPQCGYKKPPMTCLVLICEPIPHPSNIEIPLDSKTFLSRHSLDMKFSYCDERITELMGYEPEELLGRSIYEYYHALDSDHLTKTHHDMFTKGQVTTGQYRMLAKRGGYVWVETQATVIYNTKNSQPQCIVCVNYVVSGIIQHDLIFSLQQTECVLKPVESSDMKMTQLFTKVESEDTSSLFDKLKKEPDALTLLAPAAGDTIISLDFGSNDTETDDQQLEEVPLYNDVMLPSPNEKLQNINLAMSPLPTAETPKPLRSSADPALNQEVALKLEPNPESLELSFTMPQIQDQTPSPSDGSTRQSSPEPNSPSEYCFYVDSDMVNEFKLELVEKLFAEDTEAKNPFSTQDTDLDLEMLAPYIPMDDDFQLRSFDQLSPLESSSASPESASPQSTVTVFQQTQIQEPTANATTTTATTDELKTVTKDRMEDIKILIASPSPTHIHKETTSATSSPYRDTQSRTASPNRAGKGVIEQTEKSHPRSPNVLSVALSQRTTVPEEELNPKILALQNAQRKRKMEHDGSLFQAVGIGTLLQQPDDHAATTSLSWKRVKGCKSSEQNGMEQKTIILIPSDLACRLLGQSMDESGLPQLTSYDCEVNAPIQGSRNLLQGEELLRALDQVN

[2] = read-out: growth arrest and DNA damage 45 (GADD45B), GADD45B (gene 4616); assay: LTEA_HepaRG_GADD45B: Life Technologies and Expression Analysis (LTEA) Assay for growth arrest and DNA damage 45 (GADD45B) using HepaRG (AID 2283461); conditions: actives raise or lower the signal; mRNA level, 48 h
Summary of the method: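 qRT-PCR read-out (Fluidigm TaqMan, housekeeping-normalized) of mRNA change in human HepaRG cells after 48 h chemical exposure; 8-point curve, top 100 uM, half-log steps, 0.5% DMSO vehicle; gain or loss fitted relative to DMSO baseline.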

[3] = read-out: Insulin Like Growth Factor 1 (IGF1), IGF1 (gene 3479); assay: LTEA_HepaRG_IGF1: Life Technologies and Expression Analysis (LTEA) Assay for Insulin Like Growth Factor 1 (IGF1) using HepaRG (AID 2283506); conditions: actives raise or lower the signal; mRNA level, 48 h
Summary of the method: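 Endpoint: IGF1 mRNA change by qRT-PCR, housekeeping-normalized, fitted bidirectionally relative to 0.5% DMSO vehicle. Human HepaRG cells were treated 48 h in serum-free induction medium, eight half-log concentrations topping at 100 uM.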

[4] = read-out: Phosphatase and tensin (PTEN), PTEN (gene 5728); assay: LTEA_HepaRG_PTEN: Life Technologies and Expression Analysis (LTEA) Assay for Phosphatase and tensin (PTEN) using HepaRG (AID 2283523); conditions: actives raise or lower the signal; mRNA level, 48 h
Summary of the method: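 Read-out: TaqMan qRT-PCR of PTEN transcript, normalized to three housekeeping genes, fitted in both directions against 0.5% DMSO. Differentiated human HepaRG cultures received chemicals for 48 h, eight-point half-log series topping at 100 uM.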

[5] = Tanguay_ZF_120hpf_SOMI_legacy: (Legacy) Oregon State University Tanguay Lab 120 Hour Post-fertilization zebrafish Assay for Somite Malformation (AID 2283647; active = hit-call score of the fitted dose curve at least 0.9, where 1 is the maximum)
Summary of the method: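 Binary brightfield scoring of somite defects at 120 hpf in 5D wild-type larvae; one dechorionated embryo per well, static exposure from 6 hpf, 28C, sealed and dark. Final DMSO 0.64%; trimethyltin chloride 5uM positive control.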

[6] = CCTE_Simmons_MITO_basal_resp_rate: CCTE's HepG2 Seahorse XF Respirometric Screening Assay at Basal Respiratory State, Simmons Lab (AID 2284001); conditions: actives raise or lower the signal
Summary of the method: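 Basal-phase OCR in HepG2 cells, read at 6-min intervals across a 72-min run, with test compound injected at 125 nM–100 uM final (7 points). Fitted both directions against DMSO; three biological replicates per concentration.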

[7] = read-out: Bcl-2 (BID) gene, BID (gene 637); assay: LTEA_HepaRG_BID: Life Technologies and Expression Analysis (LTEA) Assay for Bcl-2 (BID) gene using HepaRG (AID 2283476); conditions: actives raise or lower the signal; mRNA level, 48 h
Summary of the method: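 Assay used HepaRG hepatic cells treated 48 h in serum-free medium with half-log dilutions from 100 uM. Endpoint: BID mRNA, qRT-PCR, normalized to ACTB/GAPDH/POLR2A.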

[8] = read-out: Apolipoprotein A-V (APOA5) gene, APOA5 (gene 116519); assay: LTEA_HepaRG_APOA5: Life Technologies and Expression Analysis (LTEA) Assay for Apolipoprotein A-V (APOA5) gene using HepaRG (AID 2283474); conditions: actives raise or lower the signal; mRNA level, 48 h
Summary of the method: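 HepaRG, 48 h chemical exposure in serum-free induction medium, 8-pt half-log series (top 100 uM), 0.5% DMSO vehicle, duplicates. Readout: APOA5 mRNA by qRT-PCR, housekeeping-normalized; bidirectional fit vs DMSO baseline.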

[9] = read-out: Cytochrome P450 (CYP2B6), CYP2B6 (gene 1555); assay: LTEA_HepaRG_CYP2B6: Life Technologies and Expression Analysis (LTEA) Assay for Cytochrome P450 (CYP2B6) using HepaRG (AID 2283481); conditions: actives raise or lower the signal; mRNA level, 48 h
Summary of the method: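 Read-out is CYP2B6 mRNA by TaqMan qRT-PCR, normalized to three housekeeping genes and fitted bidirectionally against 0.5% DMSO baseline. Human HepaRG cells received test chemicals for 48 h, top concentration 100 uM, half-log dilutions.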

[10] = TOX21_p53_BLA_p5_viability: Viability Assessment in the Tox21 HCT-116 p53 Agonism Beta-lactamase Assay, Phase 5 (AID 2283600; active = hit-call score of the fitted dose curve at least 0.9, where 1 is the maximum)
Summary of the method: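 ATP luminescence (CellTiter-Glo, 30 min, RT) served as the viability read-out, with loss of signal indicating cytotoxicity. Compounds in DMSO were pinned at a 217-fold dilution onto 4000 cells/well and incubated 16 h, 37C.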

[11] = read-out: ABC Transporter (ABCB11), ABCB11 (gene 8647); assay: CLD_ABCB11_6hr: CellzDirect (CLD) Gene Expression Assay for ABC Transporter (ABCB11) at 6 hours (AID 2283675; active = hit-call score of the fitted dose curve at least 0.9, where 1 is the maximum;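 note: hits raise ABCB11 mRNA level so AC50 marks induction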)
Summary of the method: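 Read-out was ABCB11 mRNA gain of signal by quantitative nuclease protection assay, relative to 0.2% DMSO vehicle, 6 h post-dose. Cells were primary human hepatocytes from two donors, treated across multiple concentrations; phase-contrast cytotoxicity noted yes/no.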

[12] = read-out: Fatty Acid-Binding Protein 1 (FABP1), FABP1 (gene 2168); assay: LTEA_HepaRG_FABP1: Life Technologies and Expression Analysis (LTEA) Assay for Fatty Acid-Binding Protein 1 (FABP1) using HepaRG (AID 2283494); conditions: actives raise or lower the signal; mRNA level, 48 h
Summary of the method: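 FABP1 expression by TaqMan qRT-PCR, normalised to three housekeeping genes, in HepaRG cells after 48 h chemical treatment. Eight-point half-log series topping at 100 uM in 0.5% DMSO, duplicates; gain or loss fitted relative to vehicle.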

[13] = read-out: Keratin 19 (KRT19), KRT19 (gene 3880); assay: LTEA_HepaRG_KRT19: Life Technologies and Expression Analysis (LTEA) Assay for Keratin 19 (KRT19) using HepaRG (AID 2283512); conditions: actives raise or lower the signal; mRNA level, 48 h
Summary of the method: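 HepaRG, 48 h chemical exposure, 8-pt half-log CRC from 100 uM, 0.5% DMSO vehicle, duplicates. Readout: TaqMan qRT-PCR of KRT19 mRNA, housekeeping-normalized (ACTB/GAPDH/POLR2A). Bidirectional fit vs DMSO baseline.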

[14] = read-out: Glutamate-cysteine ligase catalytic (GCLC), GCLC (gene 2729); assay: LTEA_HepaRG_GCLC: Life Technologies and Expression Analysis (LTEA) Assay for Glutamate-cysteine ligase catalytic (GCLC) using HepaRG (AID 2283498); conditions: actives raise or lower the signal; mRNA level, 48 h
Summary of the method: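 Expression by TaqMan qRT-PCR, normalized to three housekeeping genes (ACTB, GAPDH, POLR2A), with up- or down-regulation fitted against DMSO. HepaRG cells dosed in duplicate for 48 h with 8 half-log concentrations up to 100 uM, vehicle 0.5% DMSO.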

[15] = read-out: Hypoxia-inducible factor 1-alpha (Homo sapiens) (UniProt Q16665); assay: LTEA_HepaRG_HIF1A: Life Technologies and Expression Analysis (LTEA) Assay for Hypoxia-inducible factor 1 (HIF1A) Trancription factor using HepaRG (AID 2283503); conditions: actives raise or lower the signal; mRNA level, 48 h;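 note: HIF1A transcript by TaqMan qRT-PCR normalized to ACTB GAPDH and POLR2A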
Summary of the method: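 Gain- or loss-of-signal HIF1A mRNA changes are fitted against a DMSO baseline. HepaRG cultures receive eight concentrations, highest 100 uM, for 48 h in serum-free induction medium with 0.5% DMSO.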

[16] = TOX21_p53_BLA_p3_viability: Viability Assessment in the Tox21 HCT-116 p53 Agonism Beta-lactamase Assay, Phase 3 (AID 2283593; active = hit-call score of the fitted dose curve at least 0.9, where 1 is the maximum;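 note: cells exposed to compound for 16 h before reading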)
Summary of the method: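 Cellular ATP was quantified by CellTiter-Glo luminescence, read after 30 min at room temperature. Beforehand, HCT116 cells (4000/well) received compound 5 h post-seeding, 217-fold diluted from DMSO, then incubated 16 h at 37C.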

## O=C(O)c1cc(Oc2ccc(C(F)(F)F)cc2Cl)ccc1[N+](=O)[O-]
[1]
  outcome: inactive
[2]
  outcome: inactive
[3]
  outcome: inactive
[4]
  outcome: inactive
[5]
  outcome: inactive
[6]
  AC50: active: 31.1 µM

## Cc1cc(N=Nc2ccccc2C)ccc1N
[7]
  outcome: inactive

## CCC(CC)Nc1c([N+](=O)[O-])cc(C)c(C)c1[N+](=O)[O-]
[8]
  outcome: inactive

## Cc1c(COC(=O)[C@@H]2[C@H](/C=C(\Cl)C(F)(F)F)C2(C)C)cccc1-c1ccccc1
[9]
  AC50: active: 12.6 µM
[10]
  outcome: inactive
[11]
  outcome: inactive

## COP(=S)(OC)SCN1C(=O)c2ccccc2C1=O
[12]
  outcome: inactive
[13]
  outcome: inactive

## O=[N+]([O-])c1ccc(O)c([N+](=O)[O-])c1
[14]
  AC50: active: 13 µM

## O=C(CCl)c1ccccc1
[12]
  outcome: inactive
[15]
  outcome: inactive
[16]
  AC50: active: 75.1 µM

From PubChem BioAssay (EPA / NIEHS)
